Measurements reported in PubChem BioAssay AID743121 (NCATS, 2013).
Assay: 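Genes whose silencing strengthens cell killing by camptothecin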 (primary screen). System: MDA-MB-231 cells, a human breast cancer line. Knock-down reagent: single siRNA against human genes, 20 nM siRNA (0.8 pmol per well). Timing: 120 h (drug added 48 h after transfection, read 72 h later). Conditions: camptothecin 20 nM (about EC30) for 72 h; vehicle 0.1% DMSO in parallel plates. Measured: 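CellTiter-Glo ATP signal, scaled to control siRNA as percent viability; sensitisation given as log2 of untreated divided by camptothecin-treated viability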. Reading the numbers: log2 vehicle/camptothecin viability: higher = stronger sensitisation to camptothecin. Hit rule: 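Active genes have an RSA gene-level p-value below 0.001, computed from the ratios of their separate siRNAs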.
The whole screen tested about 26,000 reagents; below is a random part of them. Of all reagents, 167 (0.63%) were called active. 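Calls are per gene from RSA p-values that are not deposited; an individual active-marked siRNA can sensitise only weakly.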 Reagents against one gene are numbered here. Not all columns of the deposit are shown.

log2 vehicle/camptothecin viability, by gene knocked down and reagent
CARS1: #1 -0.0414 inactive; #2 -0.12 inactive; #3 -0.275 inactive; #4 -0.509 inactive
API5: #1 -0.136 inactive; #2 -0.131 inactive; #3 -0.771 inactive; #4 0.233 inactive
PRAM1: #1 0.232 inactive; #2 -0.193 inactive; #3 -0.129 inactive; #4 0.09 inactive
MYB: #1 -0.3 inactive; #2 -0.14 inactive; #3 -0.272 inactive; #4 -0.396 inactive
MAP4K2: #1 0.0578 inactive; #2 -0.0256 inactive; #3 -0.608 inactive; #4 -0.185 inactive
ARHGEF17: #1 -0.231 inactive; #2 -0.344 inactive; #3 -0.599 inactive
RNF185: #1 -0.0658 inactive; #2 -0.173 inactive; #3 -0.0115 inactive
AKT3: #1 -0.138 inactive; #2 -0.167 inactive; #3 -0.259 inactive; #4 -0.216 inactive
EGFEM1P: #1 0.243 inactive; #2 -0.142 inactive; #3 -0.0354 inactive; #4 -0.138 inactive
UNC5D: #1 -0.0782 inactive; #2 -0.054 inactive; #3 -0.417 inactive
TAS2R14: #1 0.398 inactive; #2 -0.236 inactive; #3 -0.263 inactive; #4 -0.413 inactive
PTP4A2: #1 -0.0113 inactive; #2 -0.185 inactive; #3 -0.379 inactive; #4 -0.401 inactive
CPT2: #1 -0.434 inactive; #2 -0.374 inactive; #3 -0.0879 inactive; #4 -0.0237 inactive
VEGFD: #1 -0.0317 inactive; #2 -0.424 inactive; #3 -0.0225 inactive; #4 0.0914 inactive
OPN1LW: #1 -0.211 inactive; #2 0.19 inactive
AKAP9: #1 -0.114 inactive; #2 -0.259 inactive; #3 -0.235 inactive; #4 0.0121 inactive
CACNA1I: #1 0.284 inactive; #2 -0.51 inactive; #3 0.114 inactive; #4 0.379 inactive
FZD6: #1 0.082 inactive; #2 -0.166 inactive; #3 -0.936 inactive; #4 -0.233 inactive
DYNC1LI2: #1 -0.367 inactive; #2 0.625 inactive; #3 -0.259 inactive; #4 0.0343 inactive

Sorted by “log2 vehicle/camptothecin viability” (highest first): some entries from above.
gene knocked down	siRNA no.	log2 vehicle/camptothecin viability	call
EGFEM1P	1	0.243	inactive
RNF185	3	-0.0115	inactive
EGFEM1P	3	-0.0354	inactive
UNC5D	1	-0.0782	inactive
AKT3	1	-0.138	inactive
EGFEM1P	4	-0.138	inactive
EGFEM1P	2	-0.142	inactive
AKT3	2	-0.167	inactive
RNF185	2	-0.173	inactive
AKT3	4	-0.216	inactive
AKT3	3	-0.259	inactive
